Test results taken from PubChem BioAssay (EPA / NIEHS).
The shares of active, inactive and inconclusive entries below differ from those in the screen. For some assays here: Where the call is inconclusive, the potency comes from a doubtful curve fit. Active and inactive are the calls of the source. How the source made its calls: active means hit-call score of the fitted dose curve at least 0.9, where 1 is the maximum; inconclusive means response in the unintended direction; inactive means score below 0.9.

The chains behind the UniProt entries cited, without tags or fusion partners. Where a name states a change or a piece, a line headed by the entry shows the natural chain unless it says otherwise.
UniProt P08684, whole entry, looked up: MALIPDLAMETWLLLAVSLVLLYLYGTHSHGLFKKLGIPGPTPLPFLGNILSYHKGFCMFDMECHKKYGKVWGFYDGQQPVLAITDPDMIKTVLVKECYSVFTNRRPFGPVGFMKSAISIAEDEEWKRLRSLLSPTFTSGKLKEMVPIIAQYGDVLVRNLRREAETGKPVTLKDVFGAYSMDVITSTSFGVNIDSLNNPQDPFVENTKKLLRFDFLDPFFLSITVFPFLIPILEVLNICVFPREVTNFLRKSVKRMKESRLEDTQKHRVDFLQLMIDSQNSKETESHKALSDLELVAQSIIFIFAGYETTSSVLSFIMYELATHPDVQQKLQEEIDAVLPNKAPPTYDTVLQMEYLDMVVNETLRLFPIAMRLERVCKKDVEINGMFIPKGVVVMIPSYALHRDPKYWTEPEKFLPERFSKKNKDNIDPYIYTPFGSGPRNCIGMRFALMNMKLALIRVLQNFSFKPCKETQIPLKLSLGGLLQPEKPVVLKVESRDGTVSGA
UniProt P22199: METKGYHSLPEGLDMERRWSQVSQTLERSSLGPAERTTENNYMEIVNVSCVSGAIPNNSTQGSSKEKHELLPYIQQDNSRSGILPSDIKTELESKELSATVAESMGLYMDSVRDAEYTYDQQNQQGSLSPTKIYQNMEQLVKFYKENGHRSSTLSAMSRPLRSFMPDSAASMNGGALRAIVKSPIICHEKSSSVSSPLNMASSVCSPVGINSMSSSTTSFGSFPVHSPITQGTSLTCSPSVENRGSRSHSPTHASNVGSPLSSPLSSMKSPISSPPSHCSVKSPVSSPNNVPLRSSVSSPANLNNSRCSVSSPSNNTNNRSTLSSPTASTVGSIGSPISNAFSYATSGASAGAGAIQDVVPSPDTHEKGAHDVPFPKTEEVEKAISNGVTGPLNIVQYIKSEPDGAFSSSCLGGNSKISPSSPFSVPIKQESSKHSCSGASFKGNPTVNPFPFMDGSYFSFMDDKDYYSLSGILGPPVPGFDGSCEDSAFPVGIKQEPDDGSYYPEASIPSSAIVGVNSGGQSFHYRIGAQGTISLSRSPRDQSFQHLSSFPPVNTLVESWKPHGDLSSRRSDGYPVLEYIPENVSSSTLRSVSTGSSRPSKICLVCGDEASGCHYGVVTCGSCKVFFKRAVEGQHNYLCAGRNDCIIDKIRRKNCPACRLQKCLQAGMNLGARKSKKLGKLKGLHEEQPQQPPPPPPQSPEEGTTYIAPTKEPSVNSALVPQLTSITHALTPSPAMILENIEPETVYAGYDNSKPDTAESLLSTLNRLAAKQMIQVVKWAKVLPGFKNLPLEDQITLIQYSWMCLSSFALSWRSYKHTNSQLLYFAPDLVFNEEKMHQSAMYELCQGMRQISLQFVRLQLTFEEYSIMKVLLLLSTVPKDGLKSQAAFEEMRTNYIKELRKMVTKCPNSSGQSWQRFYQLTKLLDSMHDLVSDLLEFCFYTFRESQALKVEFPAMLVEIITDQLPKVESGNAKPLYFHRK
UniProt P04798: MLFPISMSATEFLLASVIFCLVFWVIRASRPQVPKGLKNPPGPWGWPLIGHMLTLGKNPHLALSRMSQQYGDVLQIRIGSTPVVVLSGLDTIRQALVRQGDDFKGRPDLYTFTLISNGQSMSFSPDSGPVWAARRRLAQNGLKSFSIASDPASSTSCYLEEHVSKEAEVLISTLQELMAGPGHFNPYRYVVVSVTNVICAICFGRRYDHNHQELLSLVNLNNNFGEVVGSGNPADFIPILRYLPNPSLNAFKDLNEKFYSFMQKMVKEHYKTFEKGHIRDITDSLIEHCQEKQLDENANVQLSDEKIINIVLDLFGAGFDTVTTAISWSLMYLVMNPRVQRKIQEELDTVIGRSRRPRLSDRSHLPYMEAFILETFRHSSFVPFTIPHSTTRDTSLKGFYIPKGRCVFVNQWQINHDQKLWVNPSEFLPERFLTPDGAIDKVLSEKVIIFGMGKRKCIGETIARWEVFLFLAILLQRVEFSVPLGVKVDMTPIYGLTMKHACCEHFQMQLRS
UniProt Q92731, whole entry, looked up: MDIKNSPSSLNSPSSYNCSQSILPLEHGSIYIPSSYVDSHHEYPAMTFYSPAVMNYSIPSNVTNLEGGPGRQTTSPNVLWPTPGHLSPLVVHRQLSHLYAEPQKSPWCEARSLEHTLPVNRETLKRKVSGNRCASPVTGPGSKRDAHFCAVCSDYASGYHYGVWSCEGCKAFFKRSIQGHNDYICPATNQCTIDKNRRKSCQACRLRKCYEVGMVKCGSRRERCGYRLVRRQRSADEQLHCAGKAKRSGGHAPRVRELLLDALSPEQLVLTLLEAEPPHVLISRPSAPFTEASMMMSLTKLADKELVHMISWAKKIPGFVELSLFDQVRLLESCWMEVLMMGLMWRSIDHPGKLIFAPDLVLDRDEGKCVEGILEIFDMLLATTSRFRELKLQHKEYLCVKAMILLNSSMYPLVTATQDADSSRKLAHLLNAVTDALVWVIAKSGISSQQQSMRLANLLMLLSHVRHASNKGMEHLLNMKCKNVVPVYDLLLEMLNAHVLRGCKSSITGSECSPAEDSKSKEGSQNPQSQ
UniProt P62136, whole entry, looked up: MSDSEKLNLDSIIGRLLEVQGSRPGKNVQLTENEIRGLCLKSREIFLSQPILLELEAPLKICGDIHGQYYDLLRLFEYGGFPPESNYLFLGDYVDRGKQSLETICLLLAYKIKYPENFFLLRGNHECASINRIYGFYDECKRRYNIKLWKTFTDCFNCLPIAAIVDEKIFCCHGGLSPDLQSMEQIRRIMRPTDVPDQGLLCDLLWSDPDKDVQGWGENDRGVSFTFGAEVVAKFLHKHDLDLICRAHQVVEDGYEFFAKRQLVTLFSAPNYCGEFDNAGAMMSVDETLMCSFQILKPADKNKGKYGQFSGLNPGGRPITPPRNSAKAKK
UniProt Q95136, whole entry, looked up: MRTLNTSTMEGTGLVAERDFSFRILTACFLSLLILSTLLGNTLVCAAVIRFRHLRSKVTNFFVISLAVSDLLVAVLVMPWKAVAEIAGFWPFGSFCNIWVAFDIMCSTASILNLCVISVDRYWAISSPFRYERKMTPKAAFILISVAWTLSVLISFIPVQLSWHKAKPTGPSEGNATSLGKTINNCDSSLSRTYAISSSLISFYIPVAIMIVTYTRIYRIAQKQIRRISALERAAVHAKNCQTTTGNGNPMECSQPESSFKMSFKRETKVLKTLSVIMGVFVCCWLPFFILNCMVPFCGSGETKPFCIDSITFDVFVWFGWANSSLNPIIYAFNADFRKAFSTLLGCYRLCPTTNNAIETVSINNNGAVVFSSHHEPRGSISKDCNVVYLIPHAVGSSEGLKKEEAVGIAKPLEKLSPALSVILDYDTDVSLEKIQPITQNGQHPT
UniProt Q9UNQ0: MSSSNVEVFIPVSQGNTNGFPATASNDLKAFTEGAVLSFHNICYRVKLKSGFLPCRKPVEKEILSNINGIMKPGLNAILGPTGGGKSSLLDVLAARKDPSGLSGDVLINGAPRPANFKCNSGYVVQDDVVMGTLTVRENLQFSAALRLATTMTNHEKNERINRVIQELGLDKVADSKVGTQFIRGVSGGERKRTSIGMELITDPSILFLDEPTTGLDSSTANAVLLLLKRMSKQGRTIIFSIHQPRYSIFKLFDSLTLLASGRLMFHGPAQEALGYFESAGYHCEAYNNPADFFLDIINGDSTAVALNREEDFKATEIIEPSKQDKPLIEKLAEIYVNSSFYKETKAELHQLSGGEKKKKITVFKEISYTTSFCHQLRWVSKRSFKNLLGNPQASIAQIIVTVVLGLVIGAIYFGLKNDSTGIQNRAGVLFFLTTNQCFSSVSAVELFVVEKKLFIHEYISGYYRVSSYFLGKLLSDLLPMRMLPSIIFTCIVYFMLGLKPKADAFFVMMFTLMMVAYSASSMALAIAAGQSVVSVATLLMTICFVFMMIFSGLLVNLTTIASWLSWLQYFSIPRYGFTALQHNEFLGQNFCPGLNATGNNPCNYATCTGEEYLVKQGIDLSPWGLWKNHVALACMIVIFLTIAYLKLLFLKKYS
UniProt P11712, whole entry, looked up: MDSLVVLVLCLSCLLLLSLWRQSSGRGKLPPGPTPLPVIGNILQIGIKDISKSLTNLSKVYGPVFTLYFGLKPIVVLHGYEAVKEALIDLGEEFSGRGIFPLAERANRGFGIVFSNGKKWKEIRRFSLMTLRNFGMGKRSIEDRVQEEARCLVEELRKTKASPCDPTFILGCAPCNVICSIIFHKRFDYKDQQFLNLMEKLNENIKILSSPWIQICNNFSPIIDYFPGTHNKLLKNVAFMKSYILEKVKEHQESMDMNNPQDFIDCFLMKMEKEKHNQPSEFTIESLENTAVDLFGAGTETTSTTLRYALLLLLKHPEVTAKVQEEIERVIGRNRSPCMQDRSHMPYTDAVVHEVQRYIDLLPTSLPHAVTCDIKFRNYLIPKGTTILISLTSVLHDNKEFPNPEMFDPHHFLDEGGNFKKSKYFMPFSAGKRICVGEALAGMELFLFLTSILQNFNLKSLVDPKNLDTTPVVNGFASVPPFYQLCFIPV
UniProt O70528: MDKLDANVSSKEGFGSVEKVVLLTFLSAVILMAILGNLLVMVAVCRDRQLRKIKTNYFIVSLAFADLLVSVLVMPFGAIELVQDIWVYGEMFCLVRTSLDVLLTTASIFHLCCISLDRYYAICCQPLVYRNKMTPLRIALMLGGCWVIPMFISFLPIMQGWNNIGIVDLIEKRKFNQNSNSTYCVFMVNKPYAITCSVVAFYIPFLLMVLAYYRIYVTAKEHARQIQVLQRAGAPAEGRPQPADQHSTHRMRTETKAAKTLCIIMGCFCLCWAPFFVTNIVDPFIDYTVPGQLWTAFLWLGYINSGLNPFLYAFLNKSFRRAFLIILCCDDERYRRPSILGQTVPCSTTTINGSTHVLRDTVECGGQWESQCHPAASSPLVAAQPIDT
UniProt P19328, whole entry, looked up: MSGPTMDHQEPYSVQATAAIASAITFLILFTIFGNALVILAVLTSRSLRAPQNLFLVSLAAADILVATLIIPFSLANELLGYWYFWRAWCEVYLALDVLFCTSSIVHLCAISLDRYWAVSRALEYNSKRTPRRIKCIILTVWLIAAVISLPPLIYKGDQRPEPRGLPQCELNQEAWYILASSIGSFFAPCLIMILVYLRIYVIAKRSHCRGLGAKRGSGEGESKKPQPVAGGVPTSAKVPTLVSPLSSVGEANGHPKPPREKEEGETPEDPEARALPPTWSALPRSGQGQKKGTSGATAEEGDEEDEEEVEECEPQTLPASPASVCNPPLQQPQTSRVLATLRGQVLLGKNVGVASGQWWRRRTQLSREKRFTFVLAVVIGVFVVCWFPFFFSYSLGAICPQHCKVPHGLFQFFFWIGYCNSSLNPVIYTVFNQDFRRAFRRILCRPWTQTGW
UniProt P33535, whole entry, looked up: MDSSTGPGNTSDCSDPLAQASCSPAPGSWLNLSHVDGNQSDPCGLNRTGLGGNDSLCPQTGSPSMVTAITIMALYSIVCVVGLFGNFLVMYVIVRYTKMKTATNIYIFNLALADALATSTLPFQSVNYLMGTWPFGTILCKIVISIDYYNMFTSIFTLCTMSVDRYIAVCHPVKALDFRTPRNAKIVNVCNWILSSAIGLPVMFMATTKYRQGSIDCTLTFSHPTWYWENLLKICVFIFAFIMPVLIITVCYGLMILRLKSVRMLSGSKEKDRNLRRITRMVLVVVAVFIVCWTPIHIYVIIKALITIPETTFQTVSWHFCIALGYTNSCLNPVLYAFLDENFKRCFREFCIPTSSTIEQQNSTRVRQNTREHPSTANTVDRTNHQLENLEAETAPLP
UniProt Q05941, whole entry, looked up: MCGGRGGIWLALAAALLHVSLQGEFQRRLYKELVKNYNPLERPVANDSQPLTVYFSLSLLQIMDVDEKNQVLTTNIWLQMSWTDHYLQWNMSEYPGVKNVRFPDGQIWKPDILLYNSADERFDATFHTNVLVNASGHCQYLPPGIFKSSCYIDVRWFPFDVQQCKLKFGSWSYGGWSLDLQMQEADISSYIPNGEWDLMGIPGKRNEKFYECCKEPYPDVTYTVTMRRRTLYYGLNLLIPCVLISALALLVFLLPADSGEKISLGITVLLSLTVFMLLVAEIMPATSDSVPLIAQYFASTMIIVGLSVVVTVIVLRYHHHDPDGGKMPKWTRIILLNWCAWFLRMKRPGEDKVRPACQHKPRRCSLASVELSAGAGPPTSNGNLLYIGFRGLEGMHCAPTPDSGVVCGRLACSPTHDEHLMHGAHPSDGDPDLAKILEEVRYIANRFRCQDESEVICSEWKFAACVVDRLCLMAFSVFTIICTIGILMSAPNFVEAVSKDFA

Assays:
[1] = read-out: Cytochrome P450 3A4 (Homo sapiens) (UniProt P08684); test: CLD_CYP3A4_24hr: CellzDirect (CLD) Gene Expression Assay for xenobiotic metabolism (CYP3A4) at 24 hours (AID 2283689)
Method in brief: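 Primary human hepatocytes from two donors dosed daily with fresh compound for two days, 0.2% DMSO vehicle. CYP3A4 mRNA at 24 hr by qNPA chemiluminescence; gain-of-signal fit versus DMSO, cytotoxicity flagged by morphology.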

[2] = read-out: sulfotransferase (SULT2A), SULT2A1 (gene 6822); test: CLD_SULT2A_24hr: CellzDirect (CLD) Gene Expression Assay for sulfotransferase (SULT2A) at 24 hours (AID 2283694);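 further: potency for increased SULT2A1 mRNA level as induction over DMSO baseline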
Method in brief: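 Primary human hepatocytes from two donor preparations were dosed daily with fresh solutions, vehicle 0.2% DMSO. At 24 h, lysates went to quantitative nuclease protection (qNPA) with S1 digestion and chemiluminescent readout. Cytotoxicity was annotated from phase-contrast morphology.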

[3] = read-out: Cytochrome P450 3A4 (Homo sapiens) (UniProt P08684); test: CLD_CYP3A4_48hr: CellzDirect (CLD) Gene Expression Assay for xenobiotic metabolism (CYP3A4) at 48 hours (AID 2283698)
Method in brief: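 Primary human hepatocytes from two donor preparations dosed daily for two days with multiple chemical concentrations, 0.2% DMSO vehicle. CYP3A4 mRNA at 48 h by quantitative nuclease protection assay, chemiluminescence, positive fit versus DMSO; cytotoxicity flagged morphologically.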

[4] = biological target: rat Mineralocorticoid Receptor (MR), Nr3c2 (gene 25672) (UniProt P22199); test: NVS_NR_rMR: NovaScreen (NVS) Nuclear Receptor Binding Assay for rat Mineralocorticoid Receptor (MR) (AID 2283355)
Method in brief: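 Cell-free radioligand binding to MR in adrenalectomized rat brain supernatant, scintillation counted 24 h after dosing. Loss of signal versus DMSO baseline marks displacement. Primary screen in duplicate at 25 uM; actives retested as concentration series.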

[5] = TOX21_PR_BLA_Followup_Antagonist_viability: Viability Assessment in the Tox21 HEK293 Progesterone Receptor (PR) Antagonism Beta-lactamase Follow-Up Assay (AID 2283936);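 further: hits lower the luminescence signal meaning cytotoxicity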
Method in brief: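 PR-UAS-bla HEK293T cells (3,000/well, 2% charcoal-stripped FBS) given compound plus R5020 agonist, 16 h at 37C. CellTiter-Glo added after bla read, 30 min at room temperature; luminescence loss indicates cytotoxicity.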

[6] = TOX21_PR_LUC_Followup_Agonist_viability: Viability Assessment in the Tox21 HEK293 Progesterone Receptor (PR) Agonism Luciferase Follow-Up Assay (AID 2283941);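 further: loss of signal means cytotoxicity so actives lower viability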
Method in brief: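 HEK293-PR-A-luc cells, pre-cultured 5 days in 10% charcoal-stripped FBS, were seeded at 3,000 cells/well, rested 5 h at 37C, then given compound in DMSO for 16 h at 37C. Cellular ATP was read by CellTiter-Glo luminescence; signal loss indicates cytotoxicity.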

[7] = biological target: human CYP1A1, CYP1A1 (gene 1543) (UniProt P04798); test: NVS_ADME_hCYP1A1: NovaScreen (NVS) CYP450-related Enzyme Activity (ADME) Assay for human CYP1A1 (AID 2283100)
Method in brief: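 Compounds first went through duplicate single-concentration testing at 10 uM against purified CYP1A1. Those passing a threshold such as 30% inhibition entered singleton dose-response, highest concentration 20 uM. Signal was fluorescence measured after 1 hour.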

[8] = biological target: Estrogen receptor beta (Homo sapiens) (UniProt Q92731); test: OT_ER_ERbERb_1440: Odyssey Thera (OT) 24-hour HEK293T Protein-Complementation Assay for Estrogen Receptor-beta/-beta Homodimer (AID 2283380);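 further: fluorescence gain from ER beta LBD homodimer complementation read by laser scanning cytometry; scored as signal increase over DMSO baseline for both agonists and antagonists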
Method in brief: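 HEK293T cells stably expressing human ER-beta LBD (aa 310-547) PCA homodimer pair, dosed 24 h; formaldehyde-fixed, Draq5-stained. Readout: increase in nuclear (agonist) or nuclear plus cytoplasmic (antagonist) fluorescence intensity versus DMSO, gain-of-signal fitting.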

[9] = biological target: Serine/threonine-protein phosphatase PP1-alpha catalytic subunit (Homo sapiens) (UniProt P62136); test: NVS_ENZ_hPPP1CA: NovaScreen (NVS) Enzymatic Assay for human Protein Phosphatase 1 Aatalytic subunit Alpha (PPP1CA) (AID 2283200)
Method in brief: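 Recombinant enzyme activity read by fluorescence with electrophoretic mobility shift separating substrate from product, 1.33 h after dosing; loss of signal vs DMSO baseline. Primary screen in duplicate at 25 uM; actives retested in concentration-response up to 50 uM.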

[10] = biological target: bovine Dopamine Receptor (DR), Non-selective Binding, DRD1 (gene 281125) (UniProt Q95136); test: NVS_GPCR_bDR_NonSelective: NovaScreen (NVS) G Protein-Coupled Receptor Assay for bovine Dopamine Receptor (DR), Non-selective Binding (AID 2283241)
Method in brief: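 Bovine striatal membranes; radioligand displacement read by filtration and scintillation counting 1 h after dosing, loss of signal vs DMSO. Screened in duplicate at 25 uM, then concentration-response for hits.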

[11] = read-out: Broad substrate specificity ATP-binding cassette transporter ABCG2 (Homo sapiens) (UniProt Q9UNQ0); test: CLD_ABCG2_6hr: CellzDirect (CLD) Gene Expression Assay for ABC Transporter (ABCG2) at 6 hours (AID 2283660)
Method in brief: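 Primary human hepatocytes dosed daily with chemicals at multiple concentrations (0.2% DMSO vehicle), harvested 6 h after dosing. ABCG2 mRNA induction read by quantitative nuclease protection assay (qNPA) chemiluminescence; gain of signal fitted against DMSO baseline.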

[12] = read-out: xenobiotic metabolism (CYP1A1), CYP1A1 (gene 1543); test: CLD_CYP1A1_6hr: CellzDirect (CLD) Gene Expression Assay for xenobiotic metabolism (CYP1A1) at 6 hours (AID 2283661);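 further: potency for transcript induction above DMSO vehicle baseline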
Method in brief: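 Primary human hepatocytes from two donors, compound versus 0.2% DMSO vehicle. CYP1A1 mRNA measured 6 h after dosing by quantitative nuclease protection assay with chemiluminescent read-out; induction fitted relative to DMSO, cytotoxicity flagged by microscopy.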

[13] = read-out: Cytochrome P450 2C9 (Homo sapiens) (UniProt P11712); test: CLD_CYP2C9_24hr: CellzDirect (CLD) Gene Expression Assay for xenobiotic metabolism (CYP2C9) at 24 hours (AID 2283688);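 further: potency for induction meaning a rise in CYP2C9 mRNA over DMSO vehicle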
Method in brief: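 Primary human hepatocytes from two donor preparations, dosed daily for two days at multiple concentrations; vehicle 0.2% DMSO. CYP2C9 mRNA induction at 24 h measured by qNPA chemiluminescence relative to DMSO; cytotoxicity annotated from morphology.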

[14] = read-out: glucuronosyltransferase (UGT1A1), UGT1A1 (gene 54658); test: CLD_UGT1A1_24hr: CellzDirect (CLD) Gene Expression Assay for glucuronosyltransferase (UGT1A1) at 24 hours (AID 2283696)
Method in brief: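 Primary human hepatocytes from two donor preparations were dosed (0.2% DMSO vehicle) and harvested at 24 h; UGT1A1 mRNA induction was quantified by chemiluminescent qNPA, fitted as gain relative to DMSO.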

[15] = read-out: xenobiotic metabolism (CYP1A1), CYP1A1 (gene 1543); test: CLD_CYP1A1_48hr: CellzDirect (CLD) Gene Expression Assay for xenobiotic metabolism (CYP1A1) at 48 hours (AID 2283705)
Method in brief: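 Primary human hepatocytes from two donors dosed daily for two days at multiple concentrations, 0.2% DMSO vehicle; CYP1A1 mRNA induction at 48 h by qNPA chemiluminescence. Cytotoxicity noted by phase-contrast morphology.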

[16] = biological target: guinea pig Serotonin, 5-Hydroxytryptamine Receptor 4 (5HT4), HTR4 (gene 100135548) (UniProt O70528); test: NVS_GPCR_g5HT4: NovaScreen (NVS) G Protein-Coupled Receptor Assay for guinea pig Serotonin, 5-Hydroxytryptamine Receptor 4 (5HT4) (AID 2283294)
Method in brief: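 Guinea pig striatal membranes; radioligand competitive displacement, filtration and scintillation counting after 1 h. Primary screen in duplicate at 25 uM; actives then tested in concentration series; loss of binding signal fitted relative to DMSO.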

[17] = biological target: Adra2b (gene 24174) (UniProt P19328); test: NVS_GPCR_rmAdra2B: NovaScreen (NVS) G Protein-Coupled Receptor Assay for hybird cells Adrenergic, Alpha 2B Receptor (Adra2B) (AID 2283306)
Method in brief: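 Radioligand filter-binding assay on membrane proteins from neuroglioma/blastoma hybrid cells (rodent), 1 h after dosing; scintillation counting, loss of signal vs DMSO. Primary screen in duplicate at 25 uM, actives then run in concentration series.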

[18] = biological target: rat Opioid Receptor, Non-selective Binding, Oprm1 (gene 25601) (UniProt P33535); test: NVS_GPCR_rOpiate_NonSelective: NovaScreen (NVS) G Protein-Coupled Receptor Assay for rat Opioid Receptor, Non-selective Binding (AID 2283318)
Method in brief: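 Rat forebrain membranes, cell-free radioligand binding with filter-based scintillation counting, read 1.5 h after dosing. Primary screen in duplicate at 25 uM; actives retested in concentration series. Loss of signal versus DMSO baseline scored.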

[19] = system: guinea pig Dopamine Transporter (DAT), gene 100714898; test: NVS_TR_gDAT: NovaScreen (NVS) Transporter Assay for guinea pig Dopamine Transporter (DAT) (AID 2283369);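 further: active compounds lower bound radioligand signal relative to DMSO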
Method in brief: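 Test chemicals were incubated 2 h with guinea pig striatal membranes and a radioligand; bound label was separated by filtration and counted. Screening ran at 25 uM, followed by concentration-response testing to a 50 uM maximum.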

[20] = biological target: rat Neonicotinoid receptor (NNR), Chrna7 (gene 25302) (UniProt Q05941); test: NVS_LGIC_rNNR_BungSens: NovaScreen (NVS) Ligand-Gated Ion Channel Assay for rat Neonicotinoid receptor (NNR) (AID 2283315)
Method in brief: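 Radioligand displacement binding on rat cortical membranes, 2.5 h incubation, filtration and scintillation counting. Loss of specific binding fitted relative to DMSO.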

For `CCC(O)=C1C(=O)CC(C(=O)O)CC1=O` (stereo not given), which AC50 [1] is on record?
The AC50 was inconclusive: 0.0812 µM.

And the AC50 [2]?
The AC50 was inconclusive: 1.89 µM.

And the AC50 [3]?
The AC50 was inconclusive: 20 µM.

With `C#CC1(O)CC[C@H]2[C@@H]3CCC4=CCCC[C@@H]4[C@H]3CC[C@@]21C` (stereo not given in full) as the compound, how does the outcome [4] read?
The outcome was “inactive”.

What about the outcome [5] of the same compound?
The outcome was “inactive”.

And the AC50 [6]?
The AC50 was active: 72.7 µM.

With `CCCCCCCCOC(=O)CCCCCCCCC(=O)OCCCCCCCC` as the compound, how does the AC50 [7] read?
The AC50 was inconclusive: 6.86 µM.

For `CCCCC/C=C\C=C\C(=O)OCC`, which AC50 [8] is on record?
The AC50 was active: 12.5 µM.

What does the source list for `CCCN(CCC)c1c([N+](=O)[O-])cc(C(F)(F)F)c(N)c1[N+](=O)[O-]`?
AC50 [9]: inconclusive: 25 µM; outcome [10]: inactive; AC50 [11]: inconclusive: 20 µM; AC50 [12]: active: 3 µM; AC50 [13]: inconclusive: 0.00267 µM; AC50 [14]: active: 8.82 µM; AC50 [15]: active: 5.19 µM

Which AC50 [16] does the source give for `CCCCCCCC(=O)O` here?
Its AC50 is inconclusive: 25 µM.

What about the outcome [17] of the same compound?
The outcome was “inactive”.

And the outcome [18]?
Its outcome is “inactive”.

And the AC50 [19]?
The AC50 was inconclusive: 0.123 µM.

Which AC50 [20] does the source give for `CC1(C)C(=O)N(CO)C(=O)N1CO` here?
Its AC50 is inconclusive: 6.59 µM.
